Results as given in patent publication US9597295B2, “Diene compounds for use in human epidermal cell repair, and pharmaceutical and cosmetic compositions containing them” (GIULIANI S.P.A., priority 2009, dated 2017).
At least one structure is not confirmed: it was looked up by name or label, or the drawing left a doubt.

How the values were obtained:
[1] = system: cK-19 (KRT19) mRNA; assay: cK-19 mRNA expression by real-time PCR in reconstructed human epidermis; type: cell-based; conditions: RHE, single 20 μl dose at 0.1%
Description: The RHE (SkinEthic®) 0.5 cm^2, which reproduces the morphology of the epidermis, was accurately characterised: a fully-differentiated epidermis develops after 17 days of airlift culture of NHK (normal human keratinocytes) from skin biopsies in a given medium (MCDB153).
On arrival, the RHE (day 11) were removed from the agarose nutrient solution under a flow of sterile air. The inserts were rapidly plated in six-well plates previously filled with 1 ml of growth medium each at 37° C., […], and 90% relative humidity, taking care to avoid any formation of bubbles underneath the insert.
The substances tested were solubilised in DMSO (Sigma) to obtain a final concentration of 0.2%.
This stock solution was diluted in PBS to achieve the 0.1% of active principle.
The solution was applied with care to each tissue using a micro-pipette in a single dose of 20 μl.
The method is based on the capacity of the glass fibres to bind the nucleic acid in chaotropic concentrated saline solutions. The samples are disrupted in a highly-concentrated solution of guanidinium salts that lyse the cells and inactivate the endogenous RNase. The lysate is diluted with ethanol to make the […] competent for binding with the glass fibre of the filter in the filter cartridge. The RNA binds to the filter, while the other cell components slide freely through the filter. The filter is then washed three times and the RNA is eluted in a solution with a very low ionic strength.
The rationale in this method is based on the use of random primers to begin cDNA synthesis that ensure an efficient synthesis of the first helix of all the RNA molecules present.
The “Applied Biosystems 7500 real-time PCR” instrument uses PCR chemistry based on fluorescence, the TaqMan assay.
This technique uses Taqman probes to identify the fluorescent signal: it is highly sensitive and consists in amplifying and quantifying a specific nucleic acid sequence. The PCR product is detected in real time. The DNA, cDNA or RNA are quantified by determining the cycle in which the PCR product can be identified first, and therefore not when the reaction has reached saturation. The product is quantified by detecting the fluorescence measured in each cycle: the entity of the signal is directly proportional to the quantity of product amplified.
The relative quantification is measured from the difference between the expression of the nucleic acid sequence of a sample being tested and the same sequence in the calibration sample.
Each biological sample was processed in triplicate. The Taqman gene expression assay and cDNA (25 ng) were added to the “2× TaqMan Universal PCR Master Mix”, making up to a total volume of 25 μl.
The tissues were homogenised in 300 μl of lysis buffer for […] extraction.
On day 1, the RHE were 12 days old. […]

[2] = system: cK-10; assay: cK-10 immunohistochemical expression in the RHE (separate study); type: cell-based, human; conditions: day 17 of differentiation, versus untreated controls
Source text: Finally, in a separate study conducted using similar methods, the expression of cK-10 in the RHE was studied on days 15 and 17 of differentiation, recorded by its immunohistochemical expression. cK-10 is a marker of the terminal differentiation of the keratinocytes at granular and spinal level.

C/C=C/C=C/C=C/CO [PRT, 2E,4E,6E-Octatrien-1-ol]
cK-19 mRNA gene expression ([1]; 24 hours of treatment, day 13, calibrated to DMSO controls): much diminished | cK-19 mRNA gene expression ([1]; 48 hours of treatment, day 15, by comparison with the PBS control): diminished | cK-19 mRNA gene expression ([1]; 120 hours of treatment, day 17 (final differentiation), by comparison with the controls): increase comparable with that of the RET positive control | cK-19 mRNA gene expression ([1]; 120 hours of treatment, day 17 (final differentiation), by comparison with the controls, listed as 2,4,6-octatrien-1-ol): up-regulation | cK-10 immunohistochemical expression [2]: stronger for the 2,4,6-octatrien-1-ol treated sample than for the untreated controls
